Experimental data reported in patent US8268823B2, “Medical use of triazine derivatives” (University of Greenwich, priority 2006, dated 2012).

The compounds below were run on sodium channel (assay: veratrine-evoked uptake of [14C]guanidine into rat forebrain synaptosomes ([14C]guanidine flux)). Details: Table 8.
Format: biochemical
Procedure: The screening strategy is designed to select compounds with appropriate sodium channel blocking activity and low side effect liability. To this end all compounds are processed through the primary sodium channel assay (veratrine-evoked uptake of [^14C]guanidine into rat forebrain synaptosomes) and IC50 values computed from generated concentration-effect curves.
Synaptosomes (heavy and light mitochondrial fraction containing synaptosomes) were prepared by transferring the forebrain (of known wet weight) to a glass Potter vessel to which 9 volumes ice-cold 0.25M sucrose had been added and homogenising, using a teflon pestle, by 8 ‘up and down strokes’ of a Braun Potter S motor driven homogeniser set to 900 rpm. The resulting homogenate was centrifuged at 1036×g at 4° for 10 min and the supernatant collected. The remaining pellet was resuspended, as above, in fresh ice-cold 0.25M sucrose and the centrifugation step repeated. The supernatant fractions were pooled and centrifuged at 40,000×g (average) at 4° for 15 min and the resulting pellet resuspended in the appropriate assay buffer at a concentration of 20-25 mg wet weight per ml appropriate assay buffer.
Both assays were carried out using 14 ml polypropylene test tubes to which a range of concentrations of the compounds under test were added.
Compounds under test were pre-incubated for 10 min at 30° in incubation buffer (50 mM pH 7.4 HEPES (adjusted to pH 7.4 with Tris base), 130 mM choline chloride, 5.5 mM D-glucose, 0.8 mm MgSO4 and 5 mM KCl) containing 7.5 mg original wet weight of tissue and 100 μg veratrine HCl in a final volume of 0.5 ml. […] A further 2×5 ml of ice-cold wash buffer was added to each tube and the vacuum filtration step repeated. The GF/C glass fibre filters were transferred to minivials and 4 ml Picofluor^40 liquid scintillant added using a Brandel™ deposit/dispense system. Radioactivity was measured using a Beckman Liquid Scintillation Counter.
Data are presented as mean±sem of number of experiments indicated in brackets.

Point of comparison: `N=c1nc(N)c(-c2cccc(Cl)c2Cl)nn1CCF` [Example 52, 5(3)-Amino-6-(2,3-dichlorophenyl)-2,3(2,5)-dihydro-3(5)-imino-2-(2-fluoroethyl)-1,2,4-triazine methanesulfonate], “% Specific (uptake of [14C]guanidine)” value 64.9%. Against it:
- Nc1nc(N)c(-c2cc(Cl)cc(Cl)c2Cl)c(CF)n1 [BW202W92, reference compound] — lower, 55.9%
- CCn1nc(-c2cc(Cl)cc(Cl)c2Cl)c(N)nc1=N [Example 50] — higher, 66.8%
- Nc1nnc(-c2ccccc2OC(F)(F)F)c(N)n1 [Example 51, 3,5-Diamino-6-(2-trifluoromethoxyphenyl)-1,2,4-triazine] — higher, 72.2%
- Cn1nc(-c2cc(Cl)cc(Cl)c2)c(N)nc1=N [Example 53, 5(3)-Amino-6-(3,5-dichlorophenyl)-2,3(2,5)-dihydro-3(5)-imino-2-methyl-1,2,4-triazine methanesulfonate] — higher, 72.2%
- CCn1nc(-c2cc(Cl)cc(Cl)c2)c(N)nc1=N [Example 54, 5(3)-Amino-6-(3,5-dichlorophenyl)-2,3(2,5)-dihydro-3(5)-imino-2-ethyl-1,2,4-triazine methanesulfonate] — higher, 65.7%
- N=c1nc(N)c(-c2cc(Cl)cc(Cl)c2Cl)nn1CCF [Example 55, 5(3)-Amino-6-(2,3,5-trichlorophenyl)-2,3(2,5)-dihydro-3(5)-imino-2-(2-fluoroethyl)-1,2,4-triazine methanesulfonate] — higher, 67.9%
- N=c1nc(N)c(-c2cc(Cl)cc(Cl)c2Cl)nn1CCC(F)(F)F [Example 56, 5(3)-Amino-6-(2,3,5-trichlorophenyl)-2,3(2,5)-dihydro-3(5)-imino-2-(3,3,3-trifluoropropyl)-1,2,4-triazine methanesulfonate] — higher, 72.9%
